## Library screening results

The filed quantity is “Percent Effect” (%).
The controls that fix the scale are not given in the record; negative values are as filed.
Compounds were drawn at random from those tested, without regard to their results.
Two or more numbers in one place are separate tests of the same structure; such repeats can differ widely.

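Viability assay of Plasmodium falciparum sporozoites; the read-out is not stated. The concentration is filed as 10 mM, unlikely as a test dose, so the dose is not known. The record gives no direction; compounds that gave an IC50 in retests scored well above the rest, so higher reads as lower viability. Strong results were mostly tested again. About 34,000 compounds were tested under these conditions; 0.84% (about 280) showed 50% or more at least once.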

{"compound": "O=S1(=O)CCN2C(=N1)Oc1ccc(Cl)cc12", "effect": -7.72}
{"compound": "Cl.O=c1c2sccc2nc2n1CCN(Cc1cc(F)ccc1F)CC2", "effect": -1.68}
{"compound": "Cl.O=C(CN1CCCC1=O)N1CCC(O)(Cn2ccc3ccncc32)CC1", "effect": 1.609}
{"compound": "O=C([C@H]1CCCO1)N1CCc2ncnc(C3CC3)c2CC1", "effect": 4.693}
{"compound": "O=C(CN1CCCS1(=O)=O)Nc1cccc(COC2CCCCC2)c1", "effect": 0.9858}
{"compound": "Cc1nc(C)n(CC2CCCN2CCCc2ccccc2)n1", "stereo": "stereo not drawn", "effect": -4.604}
{"compound": "[H][C@@]12CCN(C(C)=O)C[C@]1([H])OCCN(Cc1ccc(OC)cc1)C2=O", "effect": -6.217}
{"compound": "Cc1nn(C)c(C)c1C1CCCN1C(=O)c1ccc(N(C)C)nn1", "stereo": "stereo not drawn", "effect": -11.24}
{"compound": "CN(Cc1cccnc1)Cc1cn2c(n1)CN(C1CCOC1)CC2.O=C(O)C(F)(F)F.O=C(O)C(F)(F)F.O=C(O)C(F)(F)F", "stereo": "stereo not drawn", "effect": 13.07}
{"compound": "CCc1cc(O)n2nc(C3CCCN3C(=O)c3ccccn3)cc2n1", "stereo": "stereo not drawn", "effect": 1.9}
{"compound": "O=C(c1ccno1)N1CCCC(c2ncncc2-c2ccncc2)C1", "stereo": "stereo not drawn", "effect": 10.55}
{"compound": "Fc1cnc(N2CCOCC3(CCCN(c4nncs4)C3)C2)nc1", "stereo": "stereo not drawn", "effect": -10.63}
{"compound": "COCCN1CCC2(CC1)C(=O)Nc1ccc(C(=O)NC(C)C)cc12.O=C(O)C(F)(F)F", "effect": -0.2632}
{"compound": "O=C(O)C(F)(F)F.O=C(O)C(F)(F)F.O=C(O)C(F)(F)F.[H][C@@]12CCN(Cc3cccnc3)C[C@]1([H])[C@@H](CNc1ncccn1)OC2", "effect": -8.769}
{"compound": "[H][C@@]12CCN(C(=O)c3ccoc3C)C[C@@]1([H])O[C@H](c1nnc(C3CC3)o1)C2", "effect": -2.998}
{"compound": "Cc1cc(C)n(C2CN(CC(O)COc3ccc(F)cc3)C2)n1", "stereo": "stereo not drawn", "effect": -11.45}
{"compound": "CNc1nc(CNC(=O)Nc2ccccc2-c2noc(C)n2)cs1", "effect": -7.255}
{"compound": "CCOC(=O)N1CCC(OC)c2ccccc2N(C)C(=O)C1", "stereo": "stereo not drawn", "effect": -28.34}
{"compound": "Cc1ccc(F)c(N2CCCC(NS(=O)(=O)CCCF)C2=O)c1", "stereo": "stereo not drawn", "effect": -8.233}
{"compound": "CNC(=O)C1(c2cnccn2)CCCN1C(=O)c1ccccc1F", "stereo": "stereo not drawn", "effect": 0.8505}
{"compound": "COc1ccc(N2CCCN(C(=O)Cc3csc(C)n3)CC2)cc1", "effect": -6.496}
{"compound": "[H][C@@]12CCN(Cc3ccc(C)o3)C[C@]1([H])[C@@H](CN(C)C)OC2", "effect": 21.21}
{"compound": "O=C(O)C(F)(F)F.O=C(O)C(F)(F)F.c1cncc(N2CCCC3(CN(Cc4cccs4)CCO3)C2)c1", "stereo": "stereo not drawn", "effect": 2.514}
{"compound": "Cc1cc(C2CCCN2Cc2ccc(S(=O)(=O)N(C)C)o2)on1", "stereo": "stereo not drawn", "effect": -1.001}
{"compound": "CC(NC(=O)NCCN1CCCC1)c1nncn1C", "stereo": "stereo not drawn", "effect": "3.553 and -17.49 and -29.89"}
{"compound": "COc1ccc(C(C)NC(=O)Cn2ccc(=O)n(C)c2=O)cc1OC", "stereo": "stereo not drawn", "effect": -2.489}
{"compound": "CCc1noc(CCC(=O)N[C@@H]2CC[C@@H](n3ccnc3)[C@@H]2O)n1", "effect": 12.81}
{"compound": "CC1CCN(c2cc(CCC3CCCN3)ncn2)CC1.Cl", "stereo": "stereo not drawn", "effect": 9.748}
{"compound": "COc1ccc(C2(CNC(C)c3nnc(C)o3)CCCCC2)cc1", "stereo": "stereo not drawn", "effect": 0.1176}
{"compound": "CC(C)(C)CCCC(=O)Nc1ccnn1C1CCS(=O)(=O)C1", "stereo": "stereo not drawn", "effect": 8.214}
{"compound": "CCCN1CCCN(C(=O)C(CC)N2CCCC2=O)CC1", "stereo": "stereo not drawn", "effect": 4.8}
{"compound": "[H][C@]12CCC(=O)N(c3ccccc3)[C@@]1([H])CCN2C(=O)c1cscn1", "effect": 5.469}
{"compound": "Cc1ccc(C)c2c(C)c(C(=O)NCCCn3cnnc3)[nH]c12", "effect": -15.97}
{"compound": "CCCOCC1CCN(C(=O)c2cnc(-c3csc(C)n3)nc2O)C1", "stereo": "stereo not drawn", "effect": -14}
{"compound": "O=C(C1CCCC1)N1CCCC2(CCN(c3cnccn3)CC2)C1.O=C(O)C(F)(F)F", "effect": 4.962}
{"compound": "O=C(NCCc1ccc(Cl)s1)NCc1nnc2n1CCC2", "effect": -4.156}
{"compound": "CC(C)C(NC(=O)NCc1cccnc1N(C)C)c1cccs1", "stereo": "stereo not drawn", "effect": 2.686}
{"compound": "CCOCCn1nc(C)cc1C(=O)N1CCCC[C@H](N(C)C)C1", "effect": -16.23}
{"compound": "Cc1ccoc1-c1nnc(CN2CCOC(Cn3cccn3)C2)o1", "stereo": "stereo not drawn", "effect": 7.525}
{"compound": "Cn1nnc(NCc2ccccc2OCc2ccc(Cl)cc2)n1", "effect": -4.029}
{"compound": "Cc1noc(C)c1C(=O)N1CC[C@]2(C[C@@H](OCc3cccnc3)CO2)C1.O=C(O)C(F)(F)F", "effect": 3.351}
{"compound": "CCCSc1ncc(C2CC(=O)NCc3nc4ccccn4c32)cn1", "stereo": "stereo not drawn", "effect": -7.607}
{"compound": "CN(CCn1cccn1)S(=O)(=O)N1CCCC1c1ccco1", "stereo": "stereo not drawn", "effect": -15.12}
{"compound": "COCCN1CCN(CC(=O)N(C)Cc2ccsc2)CC1", "effect": -3.908}
{"compound": "Cc1noc(C)c1-c1cccc(C2CCN(CC(=O)N(C)C)CC2)n1", "effect": 1.748}
{"compound": "COCCCNC(=O)CN(C)C(=O)c1cc(C)sc1C", "effect": -0.5848}
{"compound": "Cn1cc(N2CC3(CCN(Cc4cccs4)CC3)OCC2=O)cn1.O=C(O)C(F)(F)F", "effect": -72.68}
{"compound": "CC(=O)N1CCCN(C(=O)c2cnc3n[nH]c(C)c3c2)CC1", "effect": 1.059}
{"compound": "CC(C)CN1CCN(C(=O)NCc2cccnc2-n2cccn2)CC1", "effect": -13.24}
{"compound": "O=C(NCCNc1ncccn1)C1CC(=O)N(Cc2ccccc2)C1", "stereo": "stereo not drawn", "effect": 0}

The first 4 entries again:

Compound,effect
O=S1(=O)CCN2C(=N1)Oc1ccc(Cl)cc12,-7.72
Cl.O=c1c2sccc2nc2n1CCN(Cc1cc(F)ccc1F)CC2,-1.68
Cl.O=C(CN1CCCC1=O)N1CCC(O)(Cn2ccc3ccncc32)CC1,1.609
O=C([C@H]1CCCO1)N1CCc2ncnc(C3CC3)c2CC1,4.693

The values are deposited in ChEMBL (CHEMBL3988442, “University of Dundee, Small-Polar-MMV Screening Library” (2021)).